Test results published in patent publication US20030157516A1, “G protein coupled receptor” (priority 2000, published 2003).
The source holds more than one record for some entries. The other results are left out here. The source may hold further records. The records of an entry read as repeated measurements (runs, samples, wells or individuals).

The chains behind the UniProt entries cited, without tags or fusion partners.
UniProt Q7TN49, whole entry: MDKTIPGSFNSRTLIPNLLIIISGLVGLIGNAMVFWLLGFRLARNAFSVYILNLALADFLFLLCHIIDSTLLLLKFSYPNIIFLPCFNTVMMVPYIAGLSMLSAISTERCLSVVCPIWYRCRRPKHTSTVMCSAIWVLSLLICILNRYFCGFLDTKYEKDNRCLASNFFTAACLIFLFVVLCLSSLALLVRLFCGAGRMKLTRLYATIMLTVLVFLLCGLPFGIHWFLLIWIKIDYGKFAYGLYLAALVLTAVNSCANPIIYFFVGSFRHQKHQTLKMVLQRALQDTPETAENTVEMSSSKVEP

Target: adenine binding rat receptor (Rattus norvegicus, UniProt Q7TN49)
Assay: [3H]adenine saturation binding on CHO membranes transiently transfected
Conditions: transfected cells, 100 μM Gpp-NHp, single experiments; tested as the radiolabelled form; listed as [^3H] adenine

Question: Which Bmax does the source give for Nc1ncnc2nc[nH]c12 here?
Answer: The Bmax was 12934 fmoles/mg protein and 31236 fmoles/mg protein.
